According to PubChem BioAssay AID624291 (National Center for Advancing Translational Sciences (NCATS), 2012):
Screen size: about 350,000 compounds; about 220 (0.063%) were called active. The shares of active, inactive and inconclusive entries below differ from those in the screen. The call rests on the fitted dose curve; in most records, active means well fitted activation curve with a large enough effect; inconclusive means small, poorly fitted or top-dose-only effect; inactive means no such curve, though single readings can be large or run the other way. Potencies of inconclusive entries are doubtful fits and often do not repeat.

Assay: qHTS for Activators of Integrin-Mediated Alleviation for Muscular Dystrophy; further: nearly all actives have a fitted effect of over 60% in size;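 on activation: 100% = response of the positive control SU9516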
Conditions: alpha7betagal myoblasts, beta-gal FDG fluorescence, 48 h; activation: at 38.3 µM (top of the series)
How it was run: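 Alpha7betagal+/- myoblasts (passage 13) were plated 16-24 hr, then exposed to compounds (1:260 dilution of DMSO stock) for 48 hours at 37C. After MPER lysis, β-galactosidase reporter activity was read as FDG fluorescence (ex 480/em 540) after 30 minutes.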
Potency means the concentration at half of the fitted maximal effect.

Row | Compound | Potency | activation
1 | COc1ccccc1NC(=O)CN(c1ccc(C)cc1)S(=O)(=O)c1c(C)n[nH]c1C | inconclusive: 22.4 µM [activator, partial curve, poor fit] | 
2 | COc1ccc(CC(=O)Nc2cc(C)on2)cc1OC |  | inactive: 1.56%
3 | COc1ccc(/C=N/NC(=O)c2nnn(-c3nonc3N)c2CN(C)C2CCCCC2)cc1 | inconclusive: 5.01 µM [activator, single point] | 
4 | CC(C)(C)c1cc(S(=O)(=O)CCc2ccccn2)cc(C(C)(C)C)c1F | inconclusive: 10 µM [activator, partial curve, poor fit] | 
5 | O=C(CCc1ccccc1)NNC(=O)c1ccc(NC(=O)c2ccccc2)cc1 |  | inactive: 4.57%
6 | CCc1cc2c(-c3ccccc3)cc(=O)oc2cc1OC(C)C(=O)NCC1CCC(C(=O)O)CC1 (centres undefined) |  | inactive: 24.6%
7 | COc1ccc(-c2[nH]ncc2CN2CCCC(C(=O)c3ccc(OC)cc3OC)C2)cc1 (centres undefined) |  | inactive: -21%
8 | Cc1cc(C(=O)Nc2ccc(Cl)cc2)n(-c2ccccc2)n1 | inconclusive: 3.55 µM [activator, single point] | 
9 | C/C(=N\OCC(=O)N/N=C/c1ccc(C)cc1O)c1cccs1 |  | inactive: -31.6%
10 | Cc1cccc(C(=O)Nc2nnc(COc3ccccc3)s2)c1 | inconclusive: 28.2 µM [activator, single point] | 
11 | O=C(OCn1ncc(Cl)c(Cl)c1=O)c1cccc(C(F)(F)F)c1 |  | inactive: -67.2%
12 | CCCNC(=O)c1ccc2c(c1)nc(C)n2-c1cccc(Cl)c1 | inconclusive: 11.2 µM [activator, single point] | 
13 | O=C(COC(=O)[C@@H]1CCCN1C(=O)c1cccs1)Nc1cccc(Cl)c1 | inconclusive: 1.78 µM [activator, single point] | 
14 | Cc1ccc([C@H]2C[C@H](O)[C@@H](n3cc(COC(=O)c4ccccc4)nn3)CN2C(=O)C2CCCCC2)cc1 |  | inactive: 12.2%
15 | CCN1CCN(c2ccc(S(=O)(=O)N3CCOCC3)cc2NC(=O)CCOc2ccccc2)CC1 | inconclusive: 3.55 µM [activator, single point] | 
16 | Cc1ccc(S(=O)(=O)NCCNC(=O)c2ccc(C)nc2)cc1 | inconclusive: 28.2 µM [activator, single point] | 
17 | CC(C)(C)CN1CCNC(=O)C1CC(=O)NCCc1ccccc1C(F)(F)F (centres undefined) | inconclusive: 5.01 µM [activator, single point] | 
18 | Cc1csc(NC(=O)CSc2nnc(NC(=O)COc3ccc(Cl)cc3)s2)n1 |  | inactive: 10.4%
19 | COc1cc(/C=c2\s/c(=C\C(=O)C(C)(C)C)[nH]c2=O)cc(OC)c1OC | inconclusive: 12.6 µM [activator, single point] | 

Arranged by molecular weight (largest number first): some entries from above.
Row | Compound | Potency | activation
6 | CCc1cc2c(-c3ccccc3)cc(=O)oc2cc1OC(C)C(=O)NCC1CCC(C(=O)O)CC1 (centres undefined) |  | inactive: 24.6%
4 | CC(C)(C)c1cc(S(=O)(=O)CCc2ccccn2)cc(C(C)(C)C)c1F | inconclusive: 10 µM [activator, partial curve, poor fit] | 
2 | COc1ccc(CC(=O)Nc2cc(C)on2)cc1OC |  | inactive: 1.56%
